Measured values from PubChem BioAssay AID540276 (National Center for Advancing Translational Sciences (NCATS), 2011).
Where “and” joins values, the source holds several entries; their conditions need not be identical. Identical values can stand only once. Hit rate of the full screen: of about 300,000 compounds, about 5,400 (1.8%) were called active. The inconclusive results got no clear call from the source; some entries with a clear call stand among them for comparison. Calls follow the shape of the full dose curve; tested in HEK293 cells. Where the call is inconclusive, the potency comes from a doubtful curve fit.

experiment: qHTS for inhibitors of binding or entry into cells for Marburg Virus; settings: Marburg virus pseudotyped entry inhibition, cell reporter; activity change, negative = inhibition: at 37.8 µM (top of the series) unless noted
% is scaled to controls: 0 for no effect and ±100 for the full control effect; potency is read from the fitted curve at half-maximal effect.

Compound | activity change, negative = inhibition | Potency
COc1cc2c3c(c1)/C(=C1/SC(NC(C)=O)=NC1=O)C(=O)N3C(C)(C)C=C2C | inactive: -1.89% [at 46.1 µM] | 
OC1(Cc2ccccc2)CCNCC1 |  | inconclusive: 12.6 µM [activator, partial curve, poor fit]
COc1ccc(C(=O)NC(=S)Nc2nc(C)cc(C)n2)cc1Br | inactive: 1.13% [at 46.1 µM] | 
O=C(c1ccco1)N(CCC(c1ccccc1)c1ccco1)Cc1ccco1 (stereo not given) |  | inconclusive: 17.8 µM [inhibitor, partial curve, poor fit]
COc1cccc(N(CC(=O)NCCSCc2ccco2)S(=O)(=O)c2ccccc2)c1 |  | inconclusive: 20.6 µM [inhibitor, single point]
COc1ccc2c3c1O[C@H]1C(=O)CC[C@@]4(O)C(C2)N(CC2CC2)CCC314 (stereo not given in full) |  | inconclusive: 2.51 µM [inhibitor, full curve]
CCCNc1c(NS(=O)(=O)c2ccc3c(c2)CCCC3)c(=O)oc2ccccc12 |  | inconclusive: 35.5 µM [inhibitor, single point]
CCC[C@H]1CN(c2ccc(Br)cc2)C(=O)[C@H]1CC(=O)Nc1ccccc1 |  | inconclusive: 3.53 µM [inhibitor, full curve, poor fit]
O=C(Nc1sc2c(c1C(=O)O)CCC2)c1ccccc1 |  | active: 7.3 µM
COC(=O)Cc1csc(Nc2ccc(Cl)cc2)n1 |  | inconclusive: 35.5 µM [activator, single point]
NC(N)=NCc1cccc(I)c1 |  | inconclusive: 35.5 µM [inhibitor, single point]
CCCCCCCc1cc2ccccc2c2c(C=O)c(CCCC)c(C(=O)OC)n12 |  | inconclusive: 0.531 µM [inhibitor, full curve, poor fit]
CCCCCc1ccc(CC(=O)Nn2c(C)nc3ccccc3c2=O)cc1 | inactive: 0.736% | 
CC1=C(C#N)C(=O)OC(C)(C)C1 |  | inconclusive: 1.41 µM [inhibitor, partial curve, poor fit]
CC1CN(S(=O)(=O)c2cc(C(=O)NC(C)c3cccnc3)ccc2Cl)CC(C)O1 (stereo not given) | inactive: -20.8% | 
Nc1ccccc1/C=C/c1ccccc1N |  | inconclusive: 35.5 µM [inhibitor, single point]
CCCNS(=O)(=O)c1cc(-c2nnc3c4ccccc4c(C)nn23)ccc1OC | inactive: -10.1% [at 46.1 µM] | 
CCCOc1ccccc1OCC(=O)Nc1cccc(S(=O)(=O)NC2=NCCC2)c1 |  | inconclusive: 11.2 µM [inhibitor, single point]
O=C(NCCc1ccccc1)c1cc2ncc(Br)cn2n1 |  | inconclusive: 6.31 µM [activator, single point]
COc1ccccc1NS(=O)(=O)c1ccc(NC(=O)c2nc3nc(C)cc(C(F)F)n3n2)cc1 | inactive: -1.18% | 
CCOc1ccc(C(=O)OCC(=O)NCCNC(=O)COC(=O)c2ccc(OCC)cc2)cc1 |  | inconclusive: 35.5 µM [activator, single point]
COC(=O)C1=C(C)N(c2ccc(OC)cc2)C(C)=C(C(=O)OC)C1c1ccc(OC)cc1 |  | inconclusive: 10 µM [inhibitor, partial curve, poor fit]
CC(=O)c1ccc(NC(=O)C2CCC(CNS(=O)(=O)c3cccc4nsnc34)CC2)cc1 (stereo not given) | inactive: 18.7% [at 46.1 µM] | 

Compound | activity change, negative = inhibition | Potency
Cn1c(Cl)nc2c1c(=O)n(Cc1cccc(Br)c1)c(=O)n2C |  | inactive
COc1cccc(COC(=O)C2CC(=O)N(Cc3ccco3)C2)c1OC (stereo not given) |  | inconclusive: 14.1 µM [inhibitor, single point]
O=C(CCS(=O)(=O)c1ccccc1)NC1CCCCC1 |  | inconclusive: 2.82 µM [activator, full curve, poor fit]
O=C(CSc1ccc(-c2ccccc2)nn1)N1CCCCC1 | inactive: -4.23% [at 46.1 µM] | 
CCOC(=O)N1CCN(S(=O)(=O)Cc2ccccc2)CC1 | inactive: -0.478% | 
COc1ccc(NC(=S)NCc2ccccc2)c(OC)c1 | inactive: 18.7% [at 46.1 µM] | 
COCCN1C(=O)c2[nH]nc(-c3c(C)cc(C)cc3O)c2C1c1cccc(O)c1 (stereo not given) |  | inconclusive: 17.8 µM [inhibitor, single point]
NN=C(N)N |  | inconclusive: 2.06 µM [inhibitor, single point] and inconclusive: 10 µM [inhibitor, partial curve]
COCCn1cnnc1SCC(=O)Nc1cccc(S(=O)(=O)N(C)c2ccccc2)c1 | inactive: 7.75% [at 46.1 µM] | 
CN(C)CCCn1c2c(c(SCC(=O)Nc3ccc4c(c3)OCCO4)nc1=O)CCC2 |  | inconclusive: 5.62 µM [activator, partial curve, poor fit]
COc1ccc(C(=O)NC(=S)N(Cc2ccccc2)Cc2ccccc2)cc1 | inactive: -25.9% | 
COc1ccc(NC(=O)c2c(Cl)n(C)c3ccccc23)cc1 |  | inconclusive: 35.5 µM [inhibitor, single point]
Nc1ncnc2c1ncn2[C@@H]1O[C@H](CO)[C@H](O)[C@H]1O |  | inconclusive: 0.794 µM [inhibitor, single point]
CC1CCc2c(sc(NC(=O)c3ccco3)c2C(=O)O)C1 (stereo not given) |  | active: 3.55 µM
Cc1c(N=C2SCC(=O)N2/N=C/c2ccccc2Cl)c(=O)n(-c2ccccc2)n1C |  | inconclusive: 20 µM [inhibitor, single point]
O=[N+]([O-])c1ccc(-c2c(O)c3ccccc3c3nc4ccccc4nc23)cc1 | inactive: -10.7% | 
CC(=O)c1ccc(N/C=C\C(=O)c2ccc(C)cc2)cc1 |  | inconclusive: 11.2 µM [inhibitor, partial curve, poor fit]
CC(=O)c1cccc(NC(=O)c2sc3nc4c(cc3c2N)CCCC4)c1 |  | inconclusive: 1.41 µM [activator, full curve]
COc1ccc(N(CC(=O)Nc2ccc(S(=O)(=O)N3CCOCC3)cc2)S(=O)(=O)c2ccc(F)cc2)cc1 |  | inconclusive: 7.08 µM [inhibitor, full curve, poor fit]
COc1ccc(CCN=C(N)NS(=O)(=O)c2ccc(F)cc2)cc1OC |  | inconclusive: 14.1 µM [inhibitor, single point]
c1ccc(N2CCN(C3CCSC3)CC2)cc1 (stereo not given) | inactive: 13.5% | 
COc1cccc(C(=O)Nc2ccccc2-c2nc(-c3ccc(C)cc3)no2)c1 | inactive: 3.09% [at 46.1 µM] | 
